In US9896466B2 (Smart Brain S.R.O., priority 2013, dated 2018) one finds IC50 data, which are given here for 1 compound.

Common to all, as to test: cells
Assay [1] concerns MOLT-4 - leukaemia. The conditions noted are these: Homo sapiens.
Assay [2] concerns U87 - glioblastoma.
Assay [3] relates to MCF7par. The conditions noted are these: Homo sapiens.
In assay [4] the test system is T47D. The conditions noted are these: Homo sapiens.
The subject of assay [5] is 1321n1 - astrocytoma. The conditions noted are these: Homo sapiens.
For assay [6], the system named is MDA-MB-436. The conditions noted are these: Homo sapiens.
Assay [7] concerns LnCAP - prostate cancer. The conditions noted are these: Homo sapiens.
Assay [8] relates to HepG2 - hepatocarcinoma. Particulars: Homo sapiens.
Assay [9] concerns MG-63 - osteosarcoma. Particulars: Homo sapiens.
For assay [10], the system named is HCT116 - colorectal cancer. The conditions noted are these: Homo sapiens, HCT-116.
The test system of assay [11] is MCF7HER2−. Particulars: Homo sapiens.
The subject of assay [12] is H1299 - non-small cell lung cancer. Particulars: Homo sapiens, NCI-H1299.
The subject of assay [13] is H28 - mesothelioma.
The test system of assay [14] is SHSY5Y - neuroblastoma. The conditions noted are these: Homo sapiens, SH-SY5Y.

Molecules are shown by their SMILES.

What is called IC50 is the midpoint of a concentration-inhibition curve. Higher therefore signals a need for much substance. For the compound `CC/C(=C(\c1ccccc1)c1ccc(OCCN(C)C)cc1)c1ccccc1` [TAX, tamoxifen], the 50% inhibitory concentration (IC50) is 12.9 µM in assay [1]; 32.4 µM in [2]; 15.2 µM in [3]; 17.3 µM in assay [4]; 18 µM in [5]; 12.6 µM in assay [6]. For the same compound, the IC50 in [7] was 36.7 µM; in assay [8] it was 17.6 µM; in assay [9], 19.9 µM; in [10] it was 28.9 µM; in assay [11], 14.1 µM; in [12] it was 38.5 µM. In addition, the concentration for half-maximal inhibition (IC50) in [13] stood at 39.7 µM; in assay [14], 11.2 µM.
